Laboratory results reported in publication PMC10441990.
These are yes or no findings as the source states them, for the method shown. Binding seen in cells or lysates may run through a third protein.

Chains of the proteins cited; added tags and fusions are not shown.
UniProt P68559: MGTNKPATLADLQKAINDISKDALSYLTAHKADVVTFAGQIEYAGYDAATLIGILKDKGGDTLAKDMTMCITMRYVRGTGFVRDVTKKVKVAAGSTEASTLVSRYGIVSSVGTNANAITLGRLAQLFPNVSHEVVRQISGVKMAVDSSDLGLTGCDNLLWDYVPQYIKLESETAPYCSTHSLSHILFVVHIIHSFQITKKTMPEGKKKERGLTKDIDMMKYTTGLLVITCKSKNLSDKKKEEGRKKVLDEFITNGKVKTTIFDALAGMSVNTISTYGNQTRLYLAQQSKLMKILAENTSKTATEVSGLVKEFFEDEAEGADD
UniProt P08659: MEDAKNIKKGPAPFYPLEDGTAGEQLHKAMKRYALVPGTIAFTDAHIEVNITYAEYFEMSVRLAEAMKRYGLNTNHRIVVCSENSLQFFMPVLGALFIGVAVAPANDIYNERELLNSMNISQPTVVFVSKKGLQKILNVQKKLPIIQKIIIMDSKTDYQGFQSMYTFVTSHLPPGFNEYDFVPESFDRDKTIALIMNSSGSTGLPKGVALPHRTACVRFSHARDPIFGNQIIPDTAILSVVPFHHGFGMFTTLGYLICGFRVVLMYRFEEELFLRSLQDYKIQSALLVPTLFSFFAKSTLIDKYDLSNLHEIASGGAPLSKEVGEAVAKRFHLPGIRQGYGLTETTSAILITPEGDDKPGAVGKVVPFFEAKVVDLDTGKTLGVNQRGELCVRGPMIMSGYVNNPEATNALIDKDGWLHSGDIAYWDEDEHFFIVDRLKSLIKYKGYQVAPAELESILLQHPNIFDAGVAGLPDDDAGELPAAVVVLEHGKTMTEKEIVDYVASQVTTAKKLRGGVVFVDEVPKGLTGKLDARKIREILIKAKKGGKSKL

Key:
[1] = target: RSV CP-GFP (rice stripe virus coat protein fused to GFP) (rice stripe virus) (UniProt P68559); assay: co-IP; tagged proteins transiently co-expressed in N. benthamiana leaves, immunoprecipitation with an anti-GFP antibody, western blot with anti-HA, anti-Flag and anti-GFP
[2] = target: luciferase (Luc), control of the co-IP [luciferase: P08659]; assay: as above

Substance	binding [1]	binding [2]
luciferase (Luc), control of the co-IP (from UniProt P08659 1-550)	no binding	
RSV CP-HA (from UniProt P68559 1-322)		no binding
